Reference: paper PMC8522165
Results are given in words; binding and its absence hold for the method and conditions named. Binding seen in cells or lysates may run through a third protein. Binding calls can cover weak binding; strength is not graded here.

Biological target: insulin-like growth factor 1 receptor (IGF-1R) (human (endogenous in PDLSCs))
Experiment: co-IP; PDLSC lysate after 7 days of osteogenic induction in 5.5 mmol/L (normal) or 25 mmol/L (high) glucose; IP with rabbit anti-IGF-1R on protein A/G magnetic beads (Pierce kit), blot with anti-SNAI2

- binding: binds
B1: Snail Family Transcriptional Repressor 2 (SNAI2) (protein, UniProt O43623 1-268)
chain: MPRSFLVKKHFNASKKPNYSELDTHTVIISPYLYESYSMPVIPQPEILSSGAYSPITVWTTAAPFHAQLPNGLSPLSGYSSSLGRVSPPPPSDTSSKDHSGSESPISDEEERLQSKLSDPHAIEAEKFQCNLCNKTYSTFSGLAKHKQLHCDAQSRKSFSCKYCDKEYVSLGALKMHIRTHTLPCVCKICGKAFSRPWLLQGHIRTHTGEKPFSCPHCNRAFADRSNLRAHLQTHSDVKKYQCKNCSKTFSRMSLLHKHEESGCCVAH
